Patent publication US20080057529A1, “Method for Identifying Histone Deacetylase Inhibitors” (priority 2003, published 2008)
At least one compound was matched to its structure with a doubt left.

System: p21 minimal promoter
Test: Fluorometric β-lactamase activity assay in stable HeLa clone 1.17 (p21m-BLA)
Assay type: cell-based, human
Conditions: clone 1.17 cells, 1 μM, CFF2 substrate
Protocol: All clones were screened for the presence of stably and functional integrated copies of the p21m-BLA reporter gene transcription cassette by performing a fluorometric β-lactamase activity assay after treatment with the HDAC inhibitor Apicidin at a concentration of 1 μM (saturating dose representing 100% of Bla gene activation, i.e., 100% of HDAC inhibition). A 100 μL aliquot of cells for each stable transformant in complete DMEM was plated into a well of a 96 well plate at about 36,000 cells per well for treatment with 1 μM Apicidin (saturating dose) and a 100 μL aliquot of cells was plated into a well of a 96 well plate at 24,000 cells per well for treatment with DMSO (vehicle control). […] After 4 hours, 25 μL of complete DMEM containing Apicidin at 5× final concentration or DMSO (5%) was added to each of the wells. The cells were then grown at 37° C., 5% CO2 for about 12 to 16 hours. Afterwards, the medium was removed and 100 μL of DMEM without serum and 25 μL of FRET labeled CCF2-AM Bla substrate diluted in the appropriate buffer according to the manufacturer recommendations were each added to the cells to give a final concentration of 1 μM CCF2-AM.

## CCC(=O)CCCCC[C@@H]1NC(=O)[C@H]2CCCCN2C(=O)[C@H]([C@@H](C)CC)NC(=O)[C@H](Cc2cn(OC)c3ccccc23)NC1=O [Apicidin]
  expression of the Bla gene (blue fluorescence, FIG. 4B): induces expression of the Bla gene
